Values quoted from earlier work, collected in patent US20220296594A1, “POTENTIATORS OF ANTIMICROBIAL AND/OR ANTIVIRAL AGENTS” (MASSACHUSETTS INSTITUTE OF TECHNOLOGY, priority 2019, published 2022).

Settings: in vivo, cited from earlier work

Compound: Cc1cc(NS(=O)(=O)c2ccc(N)cc2)no1 [sulfamethoxazole, Sulfamethoxazole]
- Tmax (time to reach maximum drug concentration in plasma) (po): 1 to 4 h
- bound to plasma proteins: About 70%
